PubChem BioAssay AID602196 | INSERM, 2012
The whole screen tested about 23,000 reagents; shown is a part drawn at random. In the full data, 455 (2%) were called active. 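Active includes both protection and sensitisation; some change values fall well beyond the stated -50 to +50 range.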 Unmarked entries are inactive. Further read-outs or replicates are left out here. Not given: the amount of reagent.

Purpose: 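Genes whose knock-down alters cisplatin killing of lung cancer cells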
Cell system: human A549 lung cancer cells
Reagents: siRNA pair against human genes
Time to read-out: 48 h transfection before cisplatin; time from cisplatin to read-out not stated
Challenge: cisplatin at a dose killing half of control-siRNA cells; exact dose and duration not given
Detection: 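Cisplatin cell death as a shift from the 50% death seen with control siRNA; siRNAs toxic or growth-blocking alone scored 0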
Scale: two-siRNA summed score (-2 to +2): higher = both siRNAs protect from cisplatin killing; -2 means both sensitise; mean protection from cisplatin (shift in death): higher = protection from cisplatin killing
Rule for the call: 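Each siRNA scores 0 if harmful alone by LDH or WST-1, otherwise +1 if it reduces and -1 if it increases cisplatin killing; a gene is active when both siRNAs agree (sum +2 or -2)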
Calls: active = both siRNAs shift cisplatin killing the same way; inactive = no consistent shift, or siRNA harmful alone

Which result is listed for LOC400087 [SID131521991]?
two-siRNA summed score (-2 to +2): 1; mean protection from cisplatin (shift in death) (%): 15.7

For RAB30 [SID131500559], how do the results read?
two-siRNA summed score (-2 to +2): -1; mean protection from cisplatin (shift in death) (%): -21.6

What is on record for PSG8 [SID131518227]?
two-siRNA summed score (-2 to +2): 0; mean protection from cisplatin (shift in death) (%): 17.4

What is on record for RAPGEF3 [SID131507370]?
two-siRNA summed score (-2 to +2): 0; mean protection from cisplatin (shift in death) (%): -0.2

Which result is listed for MED13L [SID131503443]?
two-siRNA summed score (-2 to +2): 0; mean protection from cisplatin (shift in death) (%): -10

With CXCR5 [SID131512754], what does the deposit list?
two-siRNA summed score (-2 to +2): 0; mean protection from cisplatin (shift in death) (%): 5.8

What did the screen give for CATSPER4 [SID131522184]?
two-siRNA summed score (-2 to +2): 1; mean protection from cisplatin (shift in death) (%): 16.7

For DNAJB9 [SID131504604], what was measured?
two-siRNA summed score (-2 to +2): 0; mean protection from cisplatin (shift in death) (%): -5

What did the screen give for EIF3FP2 [SID131508968]?
two-siRNA summed score (-2 to +2): 0; mean protection from cisplatin (shift in death) (%): 1.7

What is on record for LOC390735 [SID131514064]?
two-siRNA summed score (-2 to +2): 0; mean protection from cisplatin (shift in death) (%): 7.3

With HTN1 [SID131521025], how do the results read?
two-siRNA summed score (-2 to +2): 1; mean protection from cisplatin (shift in death) (%): 11.9

What did the screen give for MGC13053 (retired record) [SID131519266]?
two-siRNA summed score (-2 to +2): 1; mean protection from cisplatin (shift in death) (%): 4.3

What is on record for LOC222901 [SID131519383]?
two-siRNA summed score (-2 to +2): 1; mean protection from cisplatin (shift in death) (%): 5.2

With LOC389211 [SID131516234], what was measured?
two-siRNA summed score (-2 to +2): 0; mean protection from cisplatin (shift in death) (%): 10.5

How did the screen score CTBS [SID131505282]?
two-siRNA summed score (-2 to +2): 0; mean protection from cisplatin (shift in death) (%): -3.4

For CHTF8 [SID131517422], what does the deposit list?
two-siRNA summed score (-2 to +2): 0; mean protection from cisplatin (shift in death) (%): 13.4

With IMPG1 [SID131515874], what does the deposit list?
two-siRNA summed score (-2 to +2): 0; mean protection from cisplatin (shift in death) (%): 9.8

Which result is listed for BCL2L11 [SID131516070]?
two-siRNA summed score (-2 to +2): 0; mean protection from cisplatin (shift in death) (%): 10.2

How did the screen score MGC27382 [SID131513613]?
two-siRNA summed score (-2 to +2): 0; mean protection from cisplatin (shift in death) (%): 6.8

Already shown: 6 of the entries above.
LOC400087 [SID131521991] | two-siRNA summed score (-2 to +2): 1; mean protection from cisplatin (shift in death) (%): 15.7
RAB30 [SID131500559] | two-siRNA summed score (-2 to +2): -1; mean protection from cisplatin (shift in death) (%): -21.6
PSG8 [SID131518227] | two-siRNA summed score (-2 to +2): 0; mean protection from cisplatin (shift in death) (%): 17.4
RAPGEF3 [SID131507370] | two-siRNA summed score (-2 to +2): 0; mean protection from cisplatin (shift in death) (%): -0.2
MED13L [SID131503443] | two-siRNA summed score (-2 to +2): 0; mean protection from cisplatin (shift in death) (%): -10
CXCR5 [SID131512754] | two-siRNA summed score (-2 to +2): 0; mean protection from cisplatin (shift in death) (%): 5.8

More results follow.
What did the screen give for LONRF3 [SID131517557]?
two-siRNA summed score (-2 to +2): 0; mean protection from cisplatin (shift in death) (%): 13.8

Which result is listed for OR1M1 [SID131514802]?
two-siRNA summed score (-2 to +2): 0; mean protection from cisplatin (shift in death) (%): 8.3

For BRIX1 [SID131501739], what does the deposit list?
two-siRNA summed score (-2 to +2): -1; mean protection from cisplatin (shift in death) (%): -7.7

How did the screen score VCF2 [SID131517023]?
two-siRNA summed score (-2 to +2): 0; mean protection from cisplatin (shift in death) (%): 12.2

With CHST5 [SID131508603], how do the results read?
two-siRNA summed score (-2 to +2): 0; mean protection from cisplatin (shift in death) (%): 1.3

With FAM131C [SID131512265], what does the deposit list?
two-siRNA summed score (-2 to +2): 0; mean protection from cisplatin (shift in death) (%): 5.3

For PSME2 [SID131503862], what does the deposit list?
two-siRNA summed score (-2 to +2): 0; mean protection from cisplatin (shift in death) (%): -7.4

What did the screen give for PLD5 [SID131509945]?
two-siRNA summed score (-2 to +2): 0; mean protection from cisplatin (shift in death) (%): 2.7

For TMEM71 [SID131503384], what was measured?
two-siRNA summed score (-2 to +2): 0; mean protection from cisplatin (shift in death) (%): -10.4

How did the screen score DPH5 [SID131508487]?
two-siRNA summed score (-2 to +2): 0; mean protection from cisplatin (shift in death) (%): 1.1

For LOC151443 [SID131501419], what does the deposit list?
two-siRNA summed score (-2 to +2): -1; mean protection from cisplatin (shift in death) (%): -9.9

For KIAA0819 [SID131504227], what was measured?
two-siRNA summed score (-2 to +2): 0; mean protection from cisplatin (shift in death) (%): -6.1

With LOC440442 [SID131522960], what does the deposit list?
two-siRNA summed score (-2 to +2): 2 (active); mean protection from cisplatin (shift in death) (%): 14.5

With ZPBP [SID131518206], what does the deposit list?
two-siRNA summed score (-2 to +2): 0; mean protection from cisplatin (shift in death) (%): 17.2

With OR2AE1 [SID131516082], what was measured?
two-siRNA summed score (-2 to +2): 0; mean protection from cisplatin (shift in death) (%): 10.2

What is on record for LOC389173 [SID131503832]?
two-siRNA summed score (-2 to +2): 0; mean protection from cisplatin (shift in death) (%): -7.6

What did the screen give for TBX6 [SID131518293]?
two-siRNA summed score (-2 to +2): 0; mean protection from cisplatin (shift in death) (%): 17.9

Which result is listed for SYF2 [SID131504512]?
two-siRNA summed score (-2 to +2): 0; mean protection from cisplatin (shift in death) (%): -5.2

What is on record for TOP2A [SID131504578]?
two-siRNA summed score (-2 to +2): 0; mean protection from cisplatin (shift in death) (%): -5

For DLG4 [SID131505246], what does the deposit list?
two-siRNA summed score (-2 to +2): 0; mean protection from cisplatin (shift in death) (%): -3.5

Which result is listed for TOP3B [SID131513146]?
two-siRNA summed score (-2 to +2): 0; mean protection from cisplatin (shift in death) (%): 6.3
